Data as given in BindingDB's records for doi:10.1016/s0014-2999(96)00840-0 (Hoechst Marion Roussel, 1996).

By UniProt entry, the sequences of proteins in these tests, tags left out. Chains listed by the source or under a name are the forms on record and can include a tag or linker.
UniProt P28223, whole entry: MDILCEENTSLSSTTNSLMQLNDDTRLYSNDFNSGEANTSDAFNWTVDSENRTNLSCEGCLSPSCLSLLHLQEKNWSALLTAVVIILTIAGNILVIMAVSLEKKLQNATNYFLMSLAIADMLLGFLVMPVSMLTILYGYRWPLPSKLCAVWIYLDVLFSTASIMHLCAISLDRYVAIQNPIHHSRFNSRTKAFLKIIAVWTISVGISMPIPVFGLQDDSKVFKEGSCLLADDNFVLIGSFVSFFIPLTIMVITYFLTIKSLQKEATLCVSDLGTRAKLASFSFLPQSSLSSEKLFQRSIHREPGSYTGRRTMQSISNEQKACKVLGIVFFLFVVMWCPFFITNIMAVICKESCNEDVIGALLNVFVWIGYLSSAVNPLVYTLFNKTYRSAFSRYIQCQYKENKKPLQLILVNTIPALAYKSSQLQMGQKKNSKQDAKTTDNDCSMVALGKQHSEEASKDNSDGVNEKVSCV
UniProt P35462, as listed by the source: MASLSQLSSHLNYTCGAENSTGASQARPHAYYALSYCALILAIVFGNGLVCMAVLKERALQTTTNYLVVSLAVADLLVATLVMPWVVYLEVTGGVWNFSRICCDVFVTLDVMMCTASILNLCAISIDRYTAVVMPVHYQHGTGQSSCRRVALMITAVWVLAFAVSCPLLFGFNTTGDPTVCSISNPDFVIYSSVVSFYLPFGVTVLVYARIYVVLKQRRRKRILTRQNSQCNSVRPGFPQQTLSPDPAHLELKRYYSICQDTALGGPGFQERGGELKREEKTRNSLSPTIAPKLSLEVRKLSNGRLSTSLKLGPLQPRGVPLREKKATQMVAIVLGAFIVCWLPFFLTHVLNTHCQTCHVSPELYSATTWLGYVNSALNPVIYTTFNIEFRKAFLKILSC
UniProt P14842, whole entry: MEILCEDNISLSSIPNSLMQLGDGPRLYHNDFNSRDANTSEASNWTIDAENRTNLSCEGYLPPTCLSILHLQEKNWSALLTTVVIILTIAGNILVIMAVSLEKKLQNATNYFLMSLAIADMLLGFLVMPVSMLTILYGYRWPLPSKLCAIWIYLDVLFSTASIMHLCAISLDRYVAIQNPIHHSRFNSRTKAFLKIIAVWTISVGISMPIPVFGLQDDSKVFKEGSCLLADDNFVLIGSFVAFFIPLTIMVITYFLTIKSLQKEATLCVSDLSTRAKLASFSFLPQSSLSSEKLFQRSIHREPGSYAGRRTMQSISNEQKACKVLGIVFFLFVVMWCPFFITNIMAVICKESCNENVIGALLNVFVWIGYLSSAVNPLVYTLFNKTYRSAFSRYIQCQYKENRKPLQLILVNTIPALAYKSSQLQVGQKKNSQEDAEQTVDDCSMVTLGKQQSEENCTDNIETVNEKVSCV

How the values were obtained:
[1] = target: 5-hydroxytryptamine receptor 2A (Homo sapiens, UniProt P28223)
D(3) dopamine receptor = D(3) dopamine receptor (Homo sapiens, UniProt P35462)
[2] = target: 5-hydroxytryptamine receptor 2A (Rattus norvegicus, UniProt P14842)

Row | Ki (D(3) dopamine receptor) [µM] | Ki [2] [µM] | Compound | Ki [1] [µM]
1 |  |  | COc1cc(C(C)=O)ccc1OCCCN1CCC(c2noc3cc(F)ccc23)CC1 | 0.0056
2 | 0.839 | 0.185 | OCCOCCN1CCN(C2=Nc3ccccc3Sc3ccccc32)CC1 [2-[2-(4-dibenzo[b,f][1,4]thiazepin-11-ylpiperazin-1-yl)ethoxy]ethanol] | 
